Measured values reported in PMC12240075.
Numbering of substitutions follows the chain as printed. No constants are given. Whether binding was seen depends on the method and setting. In cells and extracts the contact can be indirect. Some results given as binding are weak or reduced against the parent protein; the word gives no strength. Sequences can lack the tags named with a protein.

By UniProt entry, the sequences of proteins in these tests, tags left out.
UniProt P11142: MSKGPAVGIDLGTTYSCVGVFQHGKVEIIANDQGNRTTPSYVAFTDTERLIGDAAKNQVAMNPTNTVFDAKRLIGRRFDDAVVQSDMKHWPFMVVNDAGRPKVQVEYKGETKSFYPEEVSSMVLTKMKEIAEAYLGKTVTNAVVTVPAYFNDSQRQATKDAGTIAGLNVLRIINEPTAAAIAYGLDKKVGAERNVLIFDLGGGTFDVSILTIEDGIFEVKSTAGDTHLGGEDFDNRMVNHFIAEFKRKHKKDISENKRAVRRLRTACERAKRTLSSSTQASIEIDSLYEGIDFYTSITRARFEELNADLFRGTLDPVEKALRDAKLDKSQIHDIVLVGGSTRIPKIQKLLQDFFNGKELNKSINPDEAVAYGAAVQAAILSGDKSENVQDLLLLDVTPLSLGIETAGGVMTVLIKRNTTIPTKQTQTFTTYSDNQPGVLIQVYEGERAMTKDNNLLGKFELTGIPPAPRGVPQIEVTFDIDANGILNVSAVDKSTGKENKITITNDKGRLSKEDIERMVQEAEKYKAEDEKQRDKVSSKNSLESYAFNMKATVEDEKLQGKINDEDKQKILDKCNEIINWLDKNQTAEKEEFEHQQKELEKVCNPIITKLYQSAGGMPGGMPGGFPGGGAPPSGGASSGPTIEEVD

Experiments:
GST-OGA-Q356A/E360A = target: T1, GST-OGA-Q356A/E360A (UniProt O60502); experiment: pull-down; recombinant GST fusion protein incubated with lysates of transfected cells, GST pull-down, immunoblot; in Fig. 3D also lysates of cells treated with 100 μM GA for 24 h; only the target purified
T1 sequence: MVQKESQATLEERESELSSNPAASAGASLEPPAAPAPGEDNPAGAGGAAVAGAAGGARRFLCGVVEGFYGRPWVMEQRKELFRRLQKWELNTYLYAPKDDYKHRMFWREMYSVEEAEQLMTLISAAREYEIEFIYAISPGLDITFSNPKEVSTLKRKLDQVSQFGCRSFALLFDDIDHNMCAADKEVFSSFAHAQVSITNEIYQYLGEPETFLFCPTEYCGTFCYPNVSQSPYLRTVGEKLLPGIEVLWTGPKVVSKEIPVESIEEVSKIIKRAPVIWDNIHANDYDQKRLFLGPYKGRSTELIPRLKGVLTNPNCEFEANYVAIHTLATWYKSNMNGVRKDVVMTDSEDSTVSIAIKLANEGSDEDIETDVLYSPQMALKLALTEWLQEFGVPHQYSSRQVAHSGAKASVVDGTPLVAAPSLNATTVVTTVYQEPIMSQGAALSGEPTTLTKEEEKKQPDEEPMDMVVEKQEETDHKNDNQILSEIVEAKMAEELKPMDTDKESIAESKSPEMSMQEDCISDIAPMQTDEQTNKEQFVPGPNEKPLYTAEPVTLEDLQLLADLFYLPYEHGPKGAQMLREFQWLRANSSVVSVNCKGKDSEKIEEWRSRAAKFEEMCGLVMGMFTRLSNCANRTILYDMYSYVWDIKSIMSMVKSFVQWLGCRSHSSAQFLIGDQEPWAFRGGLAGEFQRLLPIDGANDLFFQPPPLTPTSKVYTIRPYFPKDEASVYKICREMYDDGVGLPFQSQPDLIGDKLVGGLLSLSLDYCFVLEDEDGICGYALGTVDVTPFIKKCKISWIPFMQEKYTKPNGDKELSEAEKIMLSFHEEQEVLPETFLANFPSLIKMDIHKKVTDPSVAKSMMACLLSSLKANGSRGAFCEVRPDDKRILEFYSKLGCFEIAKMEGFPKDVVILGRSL

GST-OGA-K358R = target: T2, GST-OGA-K358R (UniProt O60502); experiment: as above
T2 sequence: T1 sequence with A356Q, K358R, A360E

GST-OGA-WT = target: T3, GST-OGA-WT (UniProt O60502); experiment: as above
T3 sequence: T1 sequence with A356Q, A360E

HA-OGA-WT = target: T4, HA-OGA-WT (UniProt O60502); experiment: co-IP; both proteins tagged and overproduced in transfected cells (HEK293T); immunoprecipitation by the tag, immunoblot; lysis buffer 200 mM NaCl, 1 mM EDTA, 20 mM Tris (pH 7.5), 0.5% NP-40
T4 sequence: T1 sequence with A356Q, A360E

binding (GST-OGA-Q356A/E360A): binds
binding (GST-OGA-K358R): binds
binding (GST-OGA-WT): binds
binding (HA-OGA-WT): binds
Substance: Flag-HSC70 (from UniProt P11142 1-646)
